In publication doi:10.1101/2022.04.26.489478:
Residue numbers refer to the chain shown, from its start. No constants are given. Whether binding was seen depends on the method and setting. For some of these results: Binding calls can cover weak binding; strength is not graded here. Where a sequence is shown, tags or fusion partners need not be part of it. For some of these results: Binding seen in cells or lysates may run through a third protein.

Key:
[1] = biological target: T1, GST-ATG8A (Arabidopsis thaliana) (UniProt Q8LEM4); assay: pull-down
T1 sequence: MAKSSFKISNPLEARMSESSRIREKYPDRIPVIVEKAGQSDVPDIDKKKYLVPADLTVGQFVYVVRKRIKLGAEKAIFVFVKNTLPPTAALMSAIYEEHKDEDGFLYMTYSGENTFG

[2] = biological target: T2, GST-ATG8^LDS (Arabidopsis thaliana) (UniProt Q8LEM4); assay: pull-down
T2 sequence: T1 sequence with Y50A, L51A

[3] = biological target: T1, GST-ATG8A (Arabidopsis thaliana); assay: microscopy-based on-bead protein-protein interaction assay

MBP-AtC53 (Arabidopsis thaliana)
binding [1]: binds
binding [2]: no binding

PfC53 (Piromyces finnis)
binding [1]: binds

mCherry tagged AtC53 (Arabidopsis thaliana)
binding [3]: binds
